# Measurements from PubChem BioAssay AID504444 (National Center for Advancing Translational Sciences (NCATS), 2011).
# Screen size: about 360,000 compounds; about 7,500 (2.1%) were called active. This list was built around the results that the source calls inconclusive (neither active nor inactive); the mix of calls is not that of the screen. The call rests on the fitted dose curve; in most records, active means well fitted inhibition curve with a large enough effect; inconclusive means small, poorly fitted or top-dose-only effect, or effect the other way; inactive means flat fitted curve, though single readings scatter. Where the call is inconclusive, the potency comes from a doubtful curve fit.
# Assay: Nrf2 qHTS screen for inhibitors; further: nearly all actives have a fitted effect of over 60% in size
# Conditions: A549 ARE-Fluc reporter, luciferase luminescence, 18-24 h; activity change, negative = inhibition: at 46 µM (top of the series)
# In short: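 Nrf2 function is reported as luminescence of an ARE-controlled luciferase in A549 cells. Compounds were tested at several concentrations, and a CellTiter-Fluor read on the same wells flagged cytotoxicity.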
# On the % scale 0 is the no-effect control and ±100 the full control effect; potency means the concentration at half of the fitted maximal effect.
SMILES,Potency,"activity change, negative = inhibition"
CCNC(=S)N/N=C/c1ccc(C#N)cc1,"inconclusive: 14.6 µM [falling, single point]",
CCOC(=O)c1[nH]c(C)c(C(=O)/C=C/c2ccc(C(=O)O)cc2)c1C,"inconclusive: 16.4 µM [activator, single point]",
COc1ccc2c(c1)C(=O)C(=O)N2CCS(=O)(=O)c1ccccc1,"inconclusive: 29.1 µM [activator, partial curve, poor fit]",
NC(=O)CC(NC(=O)Cc1ccc(Br)cc1)c1ccc(N2CCC(Br)CC2)c([N+](=O)[O-])c1 (stereo unspecified),"inconclusive: 14.6 µM [falling, partial curve]",
O=C(c1ccc2c(=O)n(CC3CCCO3)c(=S)[nH]c2c1)N1CCN(C(=O)c2ccco2)CC1 (stereo unspecified),,inactive: -1.33%
COc1ccc(-c2nn(-c3ccccc3)cc2C(=O)Nc2nccs2)cc1OC,"inconclusive: 29.1 µM [falling, single point]",
CCOc1cc(CNc2ccc(S(N)(=O)=O)cc2)ccc1OCC(=O)NC(C)(C)C,"inconclusive: 5.17 µM [falling, partial curve, poor fit]",
O=C(N/N=C/c1cccc(OC(=O)c2ccco2)c1)c1ccc(F)cc1,"inconclusive: 29.1 µM [activator, single point]",
CC(=O)c1ccc(NC(=S)Nc2cccc3ccccc23)cc1,"inconclusive: 29.1 µM [activator, single point]",
Cc1ccc(NC(=O)c2cnc3cc(C)ccn3c2=O)c(C)c1,"inconclusive: 4.61 µM [activator, partial curve]",
O=C1N=C(N2CCOCC2)S/C1=C/c1cc2c(cc1[N+](=O)[O-])OCO2,"inconclusive: 11.6 µM [activator, partial curve]",
CCc1ccc(NC(=O)CSc2nnc(-c3ccccn3)n2C)cc1,"inconclusive: 4.11 µM [falling, full curve, poor fit]",
Cc1cc(-c2csc3nc[nH]c(=S)c23)cc(C)c1C,active: 23.1 µM,
N#Cc1c(N2CCN(C(=O)c3ccccc3)CC2)nc(-c2ccccc2)c2c1CCCC2,,inactive: -66%
CC(=O)c1cccc(NC(=S)Nc2cccc3ccccc23)c1,"inconclusive: 23.1 µM [activator, partial curve, poor fit]",
COc1ccc(-c2nc3c(c(SCC(=O)N4CCOCC4)n2)Cc2c(CO)cnc(C)c2O3)cc1,,inactive: -11.4%
Cc1cc(C(=O)OCC(=O)N2CC(=O)Nc3ccccc32)c(C)n1-c1ccc(F)cc1,active: 9.2 µM,
CCOc1ccccc1NC(=S)N1CCN(c2nc(-c3cccc(OC)c3)cs2)CC1,"inconclusive: 29.1 µM [falling, single point]",
CN(C)c1nc(N)nc(CSc2nnnn2-c2cccc3ccccc23)n1,active: 6.51 µM,
O=[N+]([O-])c1ccc(NCCNCCOc2nonc2-c2ccccc2)c([N+](=O)[O-])c1,"inconclusive: 5.8 µM [falling, partial curve, poor fit]",
COc1cccc(NC(=S)Nc2cccnc2)c1,,inactive: -4.53%
O=C(NCCNS(=O)(=O)c1ccccc1)c1cc(OCC(F)(F)F)ccc1OCC(F)(F)F,"inconclusive: 8.2 µM [falling, partial curve, poor fit]",

# A stretch from the list above:
SMILES,Potency,"activity change, negative = inhibition"
CCc1ccc(NC(=O)CSc2nnc(-c3ccccn3)n2C)cc1,"inconclusive: 4.11 µM [falling, full curve, poor fit]",
Cc1cc(-c2csc3nc[nH]c(=S)c23)cc(C)c1C,active: 23.1 µM,

# (more compounds)

SMILES,Potency,"activity change, negative = inhibition"
COc1ccc(NC(=O)c2cccs2)cc1,"inconclusive: 2.31 µM [activator, partial curve]",
Fc1ccccc1CSc1nc2ccccc2[nH]1,"inconclusive: 1.03 µM [activator, partial curve, poor fit]",
COc1ccc(C(=O)Oc2ccc(C(c3c(C)[nH][nH]c3=O)c3c(C)[nH][nH]c3=O)cc2)cc1,,inactive: 14.6%
CCc1cccc(-n2c(=O)c3cccnc3n2CC(=O)Nc2ccc(OC)c(Cl)c2)c1,active: 8.2 µM,
O=C(O)CCCC(=O)OCc1c(-c2ccccc2)ncc2ccccc12,,inactive: -28.8%
COc1ccc(C)c2sc(=NC(=O)c3ccccc3)n(C)c12,"inconclusive: 8.2 µM [activator, partial curve]",
CNC(=O)CSc1nnc(-c2ccc(S(=O)(=O)N3CCCC3)cc2)n1-c1cccc(C)c1C,"inconclusive: 32.6 µM [falling, partial curve, poor fit]",
Cc1ccc(N2CCN(C(=O)C3CCN(S(=O)(=O)c4cccc5nsnc45)CC3)CC2C)cc1 (stereo unspecified),"inconclusive: 18.4 µM [falling, partial curve, poor fit]",
COc1cc(C(=O)N2CCN(c3cccc(C)c3C)CC2)cc(OC)c1OC,"inconclusive: 29.1 µM [falling, single point]",
O=c1/c(=C/c2cccc3ccccc23)sc2ncnn12,"inconclusive: 29.1 µM [falling, single point]",
C/C(=N\NC(=O)c1ccc2ccccc2c1)c1cccs1,"inconclusive: 1.64 µM [activator, full curve]",
Cc1ccc(NC(=O)CN(C)C(=O)c2cc(-c3cccs3)nn2-c2ccccc2)cc1,"inconclusive: 23.1 µM [falling, partial curve, poor fit]",
Cc1cccc(NC(=O)c2ccc3c(c2)CCN3S(C)(=O)=O)c1,"inconclusive: 1.64 µM [activator, full curve]",
CC(=O)c1ccc(NC(=O)c2ccc3nc(-c4ccco4)c(-c4ccco4)nc3c2)cc1,"inconclusive: 20.6 µM [falling, single point]",
CN(CC(=O)Nc1c(Cl)cccc1Cl)C(=O)Cn1[nH]c(=O)c2ccccc2c1=O,"inconclusive: 0.058 µM [falling, full curve, poor fit]",
O=C(CSc1ncccc1-c1nc2ccccc2[nH]1)Nc1ccc2c(c1)OCCO2,,inactive: 7.63%
COC(=O)C1(CC2CC(c3cccc(Br)c3)=NO2)CCN(C(=O)OC(C)(C)C)CC1 (stereo unspecified),"inconclusive: 29.1 µM [falling, single point]",
Cc1cc(/C=C(\C#N)C(N)=O)c(C)n1-c1ccc(N2CCOCC2)c([N+](=O)[O-])c1,"inconclusive: 29.1 µM [falling, single point]",
CCc1nonc1NC(=O)c1oc2cc(C)c(C)cc2c1C,"inconclusive: 32.6 µM [falling, single point]",
O=S(=O)(NCc1ccc(F)cc1)c1ccc2[nH]c3c(c2c1)CCCC3,"inconclusive: 29.1 µM [falling, single point]",
O=C(C1CCC(CNc2c(N3CCCCC3)c(=O)c2=O)CC1)N1CCc2ccccc2C1 (stereo unspecified),"inconclusive: 1.84 µM [falling, full curve, poor fit]",
O=C(NC(=S)N1CCN(c2ccc(O)cc2)CC1)c1ccco1,"inconclusive: 29.1 µM [falling, single point]",

SMILES,Potency,"activity change, negative = inhibition"
NC1(N)OC(CN2C(=O)c3ccccc3C2=O)CS1 (stereo unspecified),"inconclusive: 8.2 µM [falling, partial curve]",
C=CS(=O)(=O)c1c2cc(OC)ccc2nc2ccc(OC)cc12,,inactive: -28%
O=C(c1nn2c(C(F)(F)F)cc(-c3cccs3)nc2c1Br)N1CCCc2ccccc21,"inconclusive: 6.51 µM [activator, partial curve]",
S=C(NCc1ccc(Cl)cc1)N1CCN(c2ccccn2)CC1,"inconclusive: 2.06 µM [falling, partial curve, poor fit]",
CCOc1cc(/C=N/NC(N)=O)cc(Br)c1OCc1ccccc1F,"inconclusive: 20.6 µM [falling, single point]",
CCOc1ccc(CCNCc2c(C(=O)O)c(C)n(Cc3ccccc3F)c2C)cc1,,inactive: -2.7%
Cc1ccc(-c2nnc(Nc3ccc(CC(N)=O)cc3)c3ccccc23)cc1,,inactive: -6.2%
COc1cccc(OCc2cc(C(=O)N(Cc3nccn3C)C(C)C)no2)c1,,inactive: -33.6%
Cc1ccc(-c2ccc(SCC(=O)N3CCN(c4ccccc4)CC3)nn2)cc1,"inconclusive: 5.8 µM [activator, partial curve]",
Cc1ccccc1C(=O)N1CCN(c2ccc(NC(=O)CSc3ccc(Cl)cc3)cc2)CC1,active: 20.6 µM,
CC1Cc2cc(S(=O)(=O)NCc3ccc(Cl)cc3)ccc2N1C(=O)C1CCC1 (stereo unspecified),"inconclusive: 16.4 µM [falling, single point]",
CCOc1ccc(NC(=O)[C@@H](c2ccccc2)N2Cc3ccccc3C2=O)cc1,,inactive: 14%
O=C1C=C(NCc2ccccc2)c2ccccc2C1=O,"inconclusive: 29.1 µM [falling, single point]",
Cc1ccccc1Nc1nc(CSc2nnc(-c3ccoc3C)n2C)cs1,,inactive: -11.6%
COc1ccc(NS(=O)(=O)c2ccc3c(c2)[C@H]2C=CC[C@H]2[C@@H](c2ccc(C(=O)O)cc2)N3)cc1,inactive,
OCCCCCN=c1cc(-c2ccccc2)oc2ccc(Cl)cc12,"inconclusive: 29.1 µM [falling, single point]",
COC(=O)Cc1ccc(NC(=O)c2cccs2)cc1,"inconclusive: 20.6 µM [activator, partial curve, poor fit]",
O=C(c1ccc(Cl)c(S(=O)(=O)N2CCCCCC2)c1)N1CCN(c2ccccc2O)CC1,active: 18.4 µM,
S=C(Nc1ccc(Nc2ccccc2)cc1)NC1CCCCCC1,active: 18.4 µM,
CC1=C(C(=O)OCc2ccccc2)C(c2ccc(N3CCOCC3)cc2)NC(=O)N1 (stereo unspecified),"inconclusive: 8.2 µM [falling, partial curve, poor fit]",
CCOc1ccc(C=NNC(=O)c2cccc3ccccc23)cc1OCC,"inconclusive: 16.4 µM [falling, partial curve, poor fit]",
Cn1c(=O)c2[nH]c(N3CCN(c4ccccc4)CC3)nc2n(C)c1=O,"inconclusive: 18.4 µM [activator, partial curve, poor fit]",
